Experimental data reported in the supplement of paper PMC12823440, “Inhibitors supercharge kinase turnover through native proteolytic circuits” (Nature, 2025).
Structures can show the parent of a compound that is named as a salt. Some of the results follow. Hit calls seldom repeat between salt and free forms of one compound.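 In K562 cells expressing nanoluciferase-fused kinases, luminescence was recorded at 4 h intervals between 2 and 18 h, normalized as percent of control with DMSO at 100% and a positive control at 0%. A significant (2 sigma) signal drop marks a time point as decreased. The authors' rule for a hit is not shown and takes in more than the number of time points.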

Sequences of proteins named here, by UniProt entry; tags and fusion partners are left off. A change or cut given only in a name is not applied to a line headed by its entry.
UniProt P42356, whole entry, looked up: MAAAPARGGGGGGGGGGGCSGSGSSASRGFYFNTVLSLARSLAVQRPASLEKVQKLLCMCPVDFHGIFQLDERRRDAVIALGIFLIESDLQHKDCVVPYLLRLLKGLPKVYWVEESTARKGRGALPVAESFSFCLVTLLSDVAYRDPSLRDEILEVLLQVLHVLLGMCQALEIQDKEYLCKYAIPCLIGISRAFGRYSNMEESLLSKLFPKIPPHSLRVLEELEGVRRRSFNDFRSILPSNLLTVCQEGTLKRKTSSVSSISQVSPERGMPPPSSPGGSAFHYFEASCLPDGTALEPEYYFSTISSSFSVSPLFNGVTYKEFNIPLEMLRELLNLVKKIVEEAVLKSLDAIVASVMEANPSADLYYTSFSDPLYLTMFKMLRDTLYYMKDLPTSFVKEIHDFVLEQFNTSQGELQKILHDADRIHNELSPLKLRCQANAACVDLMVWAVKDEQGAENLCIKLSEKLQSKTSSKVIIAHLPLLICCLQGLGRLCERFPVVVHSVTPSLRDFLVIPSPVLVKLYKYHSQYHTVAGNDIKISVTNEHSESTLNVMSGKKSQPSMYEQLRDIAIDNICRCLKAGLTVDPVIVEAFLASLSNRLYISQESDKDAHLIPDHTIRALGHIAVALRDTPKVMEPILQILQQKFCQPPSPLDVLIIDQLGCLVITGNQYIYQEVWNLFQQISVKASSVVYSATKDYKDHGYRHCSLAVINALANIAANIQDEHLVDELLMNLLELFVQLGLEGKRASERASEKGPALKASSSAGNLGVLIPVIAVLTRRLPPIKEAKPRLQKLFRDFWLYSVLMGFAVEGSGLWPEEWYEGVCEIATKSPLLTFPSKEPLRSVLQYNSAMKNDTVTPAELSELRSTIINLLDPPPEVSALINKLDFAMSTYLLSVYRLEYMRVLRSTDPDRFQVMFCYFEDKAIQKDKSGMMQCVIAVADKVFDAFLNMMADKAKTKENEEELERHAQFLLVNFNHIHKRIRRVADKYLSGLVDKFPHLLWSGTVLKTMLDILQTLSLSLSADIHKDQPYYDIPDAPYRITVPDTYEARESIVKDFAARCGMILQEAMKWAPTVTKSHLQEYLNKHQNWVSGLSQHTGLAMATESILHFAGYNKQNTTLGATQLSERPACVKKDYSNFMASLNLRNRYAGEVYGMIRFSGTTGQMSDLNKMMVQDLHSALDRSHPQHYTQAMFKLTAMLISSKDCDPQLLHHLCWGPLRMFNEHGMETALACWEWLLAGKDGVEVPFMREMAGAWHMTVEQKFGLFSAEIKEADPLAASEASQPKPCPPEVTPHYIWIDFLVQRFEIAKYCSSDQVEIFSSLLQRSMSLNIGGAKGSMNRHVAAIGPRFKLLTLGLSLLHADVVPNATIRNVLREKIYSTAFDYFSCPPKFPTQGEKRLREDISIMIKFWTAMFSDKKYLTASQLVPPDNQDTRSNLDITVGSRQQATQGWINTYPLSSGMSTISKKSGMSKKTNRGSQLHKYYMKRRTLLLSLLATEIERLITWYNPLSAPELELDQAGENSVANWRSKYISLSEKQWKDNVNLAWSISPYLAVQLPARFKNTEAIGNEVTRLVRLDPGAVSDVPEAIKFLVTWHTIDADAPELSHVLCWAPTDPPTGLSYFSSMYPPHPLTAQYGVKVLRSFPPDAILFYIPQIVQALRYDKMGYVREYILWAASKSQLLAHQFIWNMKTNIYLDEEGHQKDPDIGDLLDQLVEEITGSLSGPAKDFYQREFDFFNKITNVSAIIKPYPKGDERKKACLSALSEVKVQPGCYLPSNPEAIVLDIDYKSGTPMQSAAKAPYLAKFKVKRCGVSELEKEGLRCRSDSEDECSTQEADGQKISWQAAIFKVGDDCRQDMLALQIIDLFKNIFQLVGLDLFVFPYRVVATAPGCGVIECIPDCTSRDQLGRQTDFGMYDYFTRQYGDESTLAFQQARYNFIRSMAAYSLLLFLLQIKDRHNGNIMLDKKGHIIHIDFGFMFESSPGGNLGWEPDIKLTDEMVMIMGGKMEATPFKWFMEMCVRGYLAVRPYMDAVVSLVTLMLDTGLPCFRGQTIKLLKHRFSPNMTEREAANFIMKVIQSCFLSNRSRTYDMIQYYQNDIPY
UniProt Q9UBF8: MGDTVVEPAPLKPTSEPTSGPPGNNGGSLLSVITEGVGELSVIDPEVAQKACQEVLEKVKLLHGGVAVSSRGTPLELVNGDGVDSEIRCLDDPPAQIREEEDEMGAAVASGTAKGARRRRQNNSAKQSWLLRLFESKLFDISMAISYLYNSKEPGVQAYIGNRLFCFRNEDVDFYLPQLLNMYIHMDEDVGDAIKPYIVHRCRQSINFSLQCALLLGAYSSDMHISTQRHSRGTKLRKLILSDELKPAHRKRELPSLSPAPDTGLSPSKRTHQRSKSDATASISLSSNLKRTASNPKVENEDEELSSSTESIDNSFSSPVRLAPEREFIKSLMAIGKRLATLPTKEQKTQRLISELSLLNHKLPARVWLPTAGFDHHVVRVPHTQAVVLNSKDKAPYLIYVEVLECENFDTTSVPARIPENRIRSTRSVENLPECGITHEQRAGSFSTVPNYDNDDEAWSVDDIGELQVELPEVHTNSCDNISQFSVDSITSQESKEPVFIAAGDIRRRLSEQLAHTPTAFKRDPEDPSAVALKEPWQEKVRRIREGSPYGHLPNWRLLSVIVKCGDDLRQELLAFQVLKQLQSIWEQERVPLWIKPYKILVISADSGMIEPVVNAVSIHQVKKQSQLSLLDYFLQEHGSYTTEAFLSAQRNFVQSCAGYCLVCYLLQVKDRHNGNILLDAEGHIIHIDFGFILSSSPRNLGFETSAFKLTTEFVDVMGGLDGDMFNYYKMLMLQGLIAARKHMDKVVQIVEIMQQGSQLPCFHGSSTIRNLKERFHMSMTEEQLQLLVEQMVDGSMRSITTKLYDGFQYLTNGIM
UniProt P53350, whole entry: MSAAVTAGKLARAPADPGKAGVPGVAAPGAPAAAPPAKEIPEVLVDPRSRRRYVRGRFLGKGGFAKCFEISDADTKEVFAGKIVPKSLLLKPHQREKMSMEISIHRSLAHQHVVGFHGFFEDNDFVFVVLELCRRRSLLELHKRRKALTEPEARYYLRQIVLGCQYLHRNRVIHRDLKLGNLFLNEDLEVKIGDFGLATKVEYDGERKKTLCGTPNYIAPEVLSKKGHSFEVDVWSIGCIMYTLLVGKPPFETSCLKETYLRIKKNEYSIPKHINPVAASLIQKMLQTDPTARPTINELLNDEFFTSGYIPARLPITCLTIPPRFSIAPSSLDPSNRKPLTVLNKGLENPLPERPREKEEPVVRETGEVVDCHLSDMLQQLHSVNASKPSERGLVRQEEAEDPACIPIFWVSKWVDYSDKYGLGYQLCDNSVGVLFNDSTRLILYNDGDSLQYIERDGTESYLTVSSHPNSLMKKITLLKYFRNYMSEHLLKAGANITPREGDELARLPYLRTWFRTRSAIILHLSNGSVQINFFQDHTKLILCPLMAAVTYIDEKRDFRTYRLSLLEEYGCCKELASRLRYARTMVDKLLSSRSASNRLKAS
UniProt Q13131: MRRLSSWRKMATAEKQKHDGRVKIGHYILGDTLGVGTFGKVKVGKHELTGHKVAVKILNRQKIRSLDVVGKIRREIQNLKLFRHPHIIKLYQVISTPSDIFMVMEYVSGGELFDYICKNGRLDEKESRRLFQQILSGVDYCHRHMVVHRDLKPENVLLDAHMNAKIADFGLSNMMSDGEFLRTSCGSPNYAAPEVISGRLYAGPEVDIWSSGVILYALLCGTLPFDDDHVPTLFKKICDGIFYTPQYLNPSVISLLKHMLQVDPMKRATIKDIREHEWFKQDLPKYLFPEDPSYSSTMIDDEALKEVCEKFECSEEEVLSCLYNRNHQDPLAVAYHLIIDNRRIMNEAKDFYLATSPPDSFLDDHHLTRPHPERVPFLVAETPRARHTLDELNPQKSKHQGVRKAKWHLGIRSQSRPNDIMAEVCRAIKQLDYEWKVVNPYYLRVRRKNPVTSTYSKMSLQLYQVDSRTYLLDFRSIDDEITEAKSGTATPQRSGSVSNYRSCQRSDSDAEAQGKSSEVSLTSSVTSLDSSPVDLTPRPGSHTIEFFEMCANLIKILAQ
UniProt Q05397, whole entry, looked up: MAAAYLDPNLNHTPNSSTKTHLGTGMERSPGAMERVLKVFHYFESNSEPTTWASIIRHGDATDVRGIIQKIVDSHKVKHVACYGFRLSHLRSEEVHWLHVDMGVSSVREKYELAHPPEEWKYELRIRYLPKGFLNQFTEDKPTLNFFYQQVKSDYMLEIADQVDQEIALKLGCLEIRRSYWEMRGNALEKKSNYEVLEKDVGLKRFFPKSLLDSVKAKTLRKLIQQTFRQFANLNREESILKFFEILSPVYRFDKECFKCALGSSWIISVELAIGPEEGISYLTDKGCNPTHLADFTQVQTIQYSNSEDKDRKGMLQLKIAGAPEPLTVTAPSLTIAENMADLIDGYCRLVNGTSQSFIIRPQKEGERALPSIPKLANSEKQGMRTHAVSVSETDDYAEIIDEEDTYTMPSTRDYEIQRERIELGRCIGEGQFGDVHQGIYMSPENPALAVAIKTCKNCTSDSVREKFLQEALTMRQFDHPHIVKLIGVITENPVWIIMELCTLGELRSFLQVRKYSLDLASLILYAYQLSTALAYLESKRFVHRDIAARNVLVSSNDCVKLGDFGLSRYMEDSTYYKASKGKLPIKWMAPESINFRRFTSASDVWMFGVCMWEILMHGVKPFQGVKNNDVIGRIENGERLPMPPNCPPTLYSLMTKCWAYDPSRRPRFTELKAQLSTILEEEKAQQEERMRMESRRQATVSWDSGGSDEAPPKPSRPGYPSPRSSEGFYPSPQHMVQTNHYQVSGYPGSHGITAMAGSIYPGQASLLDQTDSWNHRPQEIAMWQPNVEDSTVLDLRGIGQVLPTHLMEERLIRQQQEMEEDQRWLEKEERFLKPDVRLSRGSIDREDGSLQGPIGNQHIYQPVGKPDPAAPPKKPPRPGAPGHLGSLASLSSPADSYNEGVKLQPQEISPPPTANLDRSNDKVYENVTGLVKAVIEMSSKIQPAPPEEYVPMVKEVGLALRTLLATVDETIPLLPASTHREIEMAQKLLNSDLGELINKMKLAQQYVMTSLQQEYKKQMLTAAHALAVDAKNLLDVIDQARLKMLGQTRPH
UniProt Q14289, whole entry, looked up: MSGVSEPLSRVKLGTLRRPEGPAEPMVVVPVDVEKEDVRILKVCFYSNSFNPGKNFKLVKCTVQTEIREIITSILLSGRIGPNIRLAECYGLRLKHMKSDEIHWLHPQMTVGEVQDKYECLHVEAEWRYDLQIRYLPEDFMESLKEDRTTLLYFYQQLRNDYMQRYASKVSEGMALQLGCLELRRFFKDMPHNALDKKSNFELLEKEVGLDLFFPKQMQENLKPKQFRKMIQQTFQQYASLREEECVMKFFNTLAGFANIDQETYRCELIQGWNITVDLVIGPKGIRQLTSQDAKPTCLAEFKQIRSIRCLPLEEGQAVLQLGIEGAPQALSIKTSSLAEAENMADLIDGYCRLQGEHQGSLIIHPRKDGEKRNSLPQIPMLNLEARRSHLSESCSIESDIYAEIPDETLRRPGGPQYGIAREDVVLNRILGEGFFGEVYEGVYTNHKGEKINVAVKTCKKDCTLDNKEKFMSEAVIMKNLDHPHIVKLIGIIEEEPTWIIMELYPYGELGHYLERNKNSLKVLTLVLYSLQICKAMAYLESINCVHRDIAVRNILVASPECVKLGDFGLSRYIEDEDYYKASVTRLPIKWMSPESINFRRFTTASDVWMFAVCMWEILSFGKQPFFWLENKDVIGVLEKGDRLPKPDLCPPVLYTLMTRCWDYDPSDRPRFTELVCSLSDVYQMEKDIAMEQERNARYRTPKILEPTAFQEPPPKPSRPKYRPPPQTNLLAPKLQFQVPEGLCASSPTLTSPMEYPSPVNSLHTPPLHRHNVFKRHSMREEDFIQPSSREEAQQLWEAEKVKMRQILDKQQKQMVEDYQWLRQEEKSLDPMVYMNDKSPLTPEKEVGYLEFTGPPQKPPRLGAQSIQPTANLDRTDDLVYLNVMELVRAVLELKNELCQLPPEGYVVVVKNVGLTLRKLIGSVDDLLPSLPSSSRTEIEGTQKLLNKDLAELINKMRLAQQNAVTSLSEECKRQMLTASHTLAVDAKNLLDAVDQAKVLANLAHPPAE

Columns and labels:
Test in all cases: kinase-Nluc reporter destabilization hit call (1 = scored as downregulated) (binary); higher = compound decreases kinase abundance
Settings in all cases: K562; 2-18 h
[1] = biological target: PDPK1 (UniProt O15530)
[2] = biological target: PIK4CA (UniProt P42356)
[3] = biological target: PIK4CB (UniProt Q9UBF8)
[4] = biological target: PLK1 (UniProt P53350)
[5] = biological target: PRKAA1 (UniProt Q13131)
[6] = biological target: PRKCA (UniProt P17252)
[7] = biological target: PTK2 (UniProt Q05397)
[8] = biological target: PTK2B (UniProt Q14289)
[9] = biological target: RAF1 (UniProt P04049)
[10] = biological target: RAF1_S257L (clone: RAF1_mut) (UniProt P04049)

Measured: kinase-Nluc reporter destabilization hit call

Nc1ncc(-c2ccc(C(=O)N3CCNCC3)cc2)nc1-c1ccc(C(F)(F)F)cc1 (10 µM)
inactive: [1] 0 | [2] 0 | [3] 0 | [4] 0 | [5] 0 | [6] 0 | [7] 0 | [8] 0 | [9] 0 | [10] 0

CNC(=O)c1ccc(-c2cnc3cnc(-c4ccccc4)cn23)cc1 (10 µM)
inactive: [1] 0 | [2] 0 | [3] 0 | [4] 0 | [5] 0 | [6] 0 | [7] 0 | [8] 0 | [9] 0 | [10] 0

CC[C@@H](N)CNc1ccnc(-c2cc(-c3cnn(C)c3)ccc2O)n1 (2.5 µM)
inactive: [1] 0 | [2] 0 | [3] 0 | [4] 0 | [5] 0 | [6] 0 | [7] 0 | [8] 0 | [9] 0 | [10] 0

CSc1ccc(CN2CCCC(Nc3ccc4[nH]ncc4c3)C2)cc1 (stereo not given) [Rho-Kinase-IN-1] (10 µM)
inactive: [1] 0 | [2] 0 | [3] 0 | [4] 0 | [5] 0 | [6] 0 | [7] 0 | [8] 0 | [9] 0 | [10] 0

CC(C)(C)C(=O)N1N=CC[C@H]1c1ccccc1 (10 µM)
inactive: [1] 0 | [2] 0 | [3] 0 | [4] 0 | [5] 0 | [6] 0 | [7] 0 | [8] 0 | [9] 0 | [10] 0

O=C(O)c1ccc(-c2c[nH]c3ncc(-c4ccccc4)cc23)cc1C1CCCC1 (2.5 µM)
inactive: [1] 0 | [2] 0 | [3] 0 | [4] 0 | [5] 0 | [6] 0 | [7] 0 | [8] 0 | [9] 0 | [10] 0

N=C(N)NC(=N)NCCc1ccccc1 [Phenformin (hydrochloride)] (10 µM)
inactive: [1] 0 | [2] 0 | [3] 0 | [4] 0 | [5] 0 | [6] 0 | [7] 0 | [8] 0 | [9] 0 | [10] 0

OCCN(CCO)c1ccc(C(c2ccc(Cl)cc2)c2ccc(N(CCO)CCO)cc2)cc1 (10 µM)
inactive: [1] 0 | [2] 0 | [3] 0 | [4] 0 | [5] 0 | [6] 0 | [7] 0 | [8] 0 | [9] 0 | [10] 0

CC(C)(C)c1cc(C(c2cc3c(cc2O)OCO3)N2CCOCC2)cc(C(C)(C)C)c1O (stereo not given) (2.5 µM)
inactive: [1] 0 | [2] 0 | [3] 0 | [4] 0 | [5] 0 | [6] 0 | [7] 0 | [8] 0 | [9] 0 | [10] 0

Cc1cccc(-c2[nH]ncc2-c2ccc3ncccc3n2)n1 (10 µM)
inactive: [1] 0 | [2] 0 | [3] 0 | [4] 0 | [5] 0 | [6] 0 | [7] 0 | [8] 0 | [9] 0 | [10] 0

CN(C)c1nc2c(Br)c(Br)c(Br)c(Br)c2n1CC(=O)O (10 µM)
inactive: [1] 0 | [2] 0 | [3] 0 | [4] 0 | [5] 0 | [6] 0 | [7] 0 | [8] 0 | [9] 0 | [10] 0

O=C(Nc1ccc(Cl)c(Cl)c1)Nc1ccc2nnsc2c1 (10 µM)
inactive: [1] 0 | [2] 0 | [3] 0 | [4] 0 | [5] 0 | [6] 0 | [7] 0 | [8] 0 | [9] 0 | [10] 0

NS(=O)(=O)c1ccc(N2N=C(c3ccccc3)CC2c2ccccc2)cc1 (stereo not given) (10 µM)
inactive: [1] 0 | [2] 0 | [3] 0 | [4] 0 | [5] 0 | [6] 0 | [7] 0 | [8] 0 | [9] 0 | [10] 0

C=C(F)C(=O)N1CCN(c2nc(OC[C@@H]3CCCN3C)nc3c2CCN(c2cccc4cccc(Cl)c24)C3)C[C@@H]1CC#N (2.5 µM)
inactive: [1] 0 | [2] 0 | [3] 0 | [4] 0 | [5] 0 | [6] 0 | [7] 0 | [8] 0 | [9] 0 | [10] 0

O=C(CO)N1CCC(c2n[nH]c(-c3ccc(Cl)cc3)c2-c2ccncn2)CC1 (10 µM)
inactive: [1] 0 | [2] 0 | [3] 0 | [4] 0 | [5] 0 | [6] 0 | [7] 0 | [8] 0 | [9] 0 | [10] 0

CNC(=O)c1cc(Oc2ccc3nc(N[C@@H]4CCCC[C@H]4O)sc3c2)ccn1 (10 µM)
inactive: [1] 0 | [2] 0 | [3] 0 | [4] 0 | [5] 0 | [6] 0 | [7] 0 | [8] 0 | [9] 0 | [10] 0

c1ccc(-c2oc3ncnc(NC[C@@H]4CCCO4)c3c2-c2ccccc2)cc1 (2.5 µM)
inactive: [1] 0 | [2] 0 | [3] 0 | [4] 0 | [5] 0 | [6] 0 | [7] 0 | [8] 0 | [9] 0 | [10] 0

Cc1ccc(-c2ccc3c(ccc4sc5c(c43)NC[C@@H](C)NC5=O)n2)cn1 (10 µM)
inactive: [1] 0 | [2] 0 | [3] 0 | [4] 0 | [5] 0 | [6] 0 | [7] 0 | [8] 0 | [9] 0 | [10] 0

O=C(O)c1ccc(N2N=C(Cc3ccccc3)C(=Cc3ccc(-c4ccccc4F)o3)C2=O)cc1 (10 µM)
inactive: [1] 0 | [2] 0 | [3] 0 | [4] 0 | [5] 0 | [6] 0 | [7] 0 | [8] 0 | [9] 0 | [10] 0

COc1ccc2c(c1OC)OC1c3ccc(O)cc3OCC21 (stereo not given) [Methylnissolin] (10 µM)
inactive: [1] 0 | [2] 0 | [3] 0 | [4] 0 | [5] 0 | [6] 0 | [7] 0 | [8] 0 | [9] 0 | [10] 0

COc1ccccc1/C=C1\C(=O)Nc2ccccc21 (10 µM)
inactive: [1] 0 | [2] 0 | [3] 0 | [4] 0 | [5] 0 | [6] 0 | [7] 0 | [8] 0 | [9] 0 | [10] 0

COc1ncc(Nc2ncc([C@@H](C)N3CCN(S(C)(=O)=O)CC3)cc2-c2nc(C)nc(N)n2)cc1F (10 µM)
inactive: [1] 0 | [2] 0 | [3] 0 | [4] 0 | [5] 0 | [6] 0 | [7] 0 | [8] 0 | [9] 0 | [10] 0

N#C/C(=C(/N)Sc1ccc(N)cc1)c1ccccc1C(F)(F)F (10 µM)
inactive: [1] 0 | [2] 0 | [3] 0 | [4] 0 | [5] 0 | [6] 0 | [7] 0 | [8] 0 | [9] 0 | [10] 0

CC(C)C[C@H](NC(=O)[C@H](CCCCN)NC(=O)[C@H](CO)NC(=O)[C@@H](N)CC(C)C)C(N)=O [LSKL, Inhibitor of Thrombospondin (TSP-1) (TFA)] (10 µM)
inactive: [1] 0 | [2] 0 | [3] 0 | [4] 0 | [5] 0 | [6] 0 | [7] 0 | [8] 0 | [9] 0 | [10] 0

COC(=O)N[C@@H](C)CNc1nccc(-c2cn(C(C)C)nc2-c2cc(Cl)cc(NS(C)(=O)=O)c2F)n1 [Encorafenib] (10 µM)
inactive: [1] 0 | [2] 0 | [3] 0 | [4] 0 | [5] 0 | [6] 0 | [7] 0 | [8] 0 | [9] 0 | [10] 0

9 structures already listed, arranged by molar mass, high to low.
C=C(F)C(=O)N1CCN(c2nc(OC[C@@H]3CCCN3C)nc3c2CCN(c2cccc4cccc(Cl)c24)C3)C[C@@H]1CC#N (2.5 µM)
inactive: [1] 0 | [2] 0 | [3] 0 | [4] 0 | [5] 0 | [6] 0 | [7] 0 | [8] 0 | [9] 0 | [10] 0

COc1ncc(Nc2ncc([C@@H](C)N3CCN(S(C)(=O)=O)CC3)cc2-c2nc(C)nc(N)n2)cc1F (10 µM)
inactive: [1] 0 | [2] 0 | [3] 0 | [4] 0 | [5] 0 | [6] 0 | [7] 0 | [8] 0 | [9] 0 | [10] 0

O=C(O)c1ccc(N2N=C(Cc3ccccc3)C(=Cc3ccc(-c4ccccc4F)o3)C2=O)cc1 (10 µM)
inactive: [1] 0 | [2] 0 | [3] 0 | [4] 0 | [5] 0 | [6] 0 | [7] 0 | [8] 0 | [9] 0 | [10] 0

CC(C)C[C@H](NC(=O)[C@H](CCCCN)NC(=O)[C@H](CO)NC(=O)[C@@H](N)CC(C)C)C(N)=O [LSKL, Inhibitor of Thrombospondin (TSP-1) (TFA)] (10 µM)
inactive: [1] 0 | [2] 0 | [3] 0 | [4] 0 | [5] 0 | [6] 0 | [7] 0 | [8] 0 | [9] 0 | [10] 0

O=C(CO)N1CCC(c2n[nH]c(-c3ccc(Cl)cc3)c2-c2ccncn2)CC1 (10 µM)
inactive: [1] 0 | [2] 0 | [3] 0 | [4] 0 | [5] 0 | [6] 0 | [7] 0 | [8] 0 | [9] 0 | [10] 0

Cc1ccc(-c2ccc3c(ccc4sc5c(c43)NC[C@@H](C)NC5=O)n2)cn1 (10 µM)
inactive: [1] 0 | [2] 0 | [3] 0 | [4] 0 | [5] 0 | [6] 0 | [7] 0 | [8] 0 | [9] 0 | [10] 0

c1ccc(-c2oc3ncnc(NC[C@@H]4CCCO4)c3c2-c2ccccc2)cc1 (2.5 µM)
inactive: [1] 0 | [2] 0 | [3] 0 | [4] 0 | [5] 0 | [6] 0 | [7] 0 | [8] 0 | [9] 0 | [10] 0

N#C/C(=C(/N)Sc1ccc(N)cc1)c1ccccc1C(F)(F)F (10 µM)
inactive: [1] 0 | [2] 0 | [3] 0 | [4] 0 | [5] 0 | [6] 0 | [7] 0 | [8] 0 | [9] 0 | [10] 0

COc1ccc2c(c1OC)OC1c3ccc(O)cc3OCC21 (stereo not given) [Methylnissolin] (10 µM)
inactive: [1] 0 | [2] 0 | [3] 0 | [4] 0 | [5] 0 | [6] 0 | [7] 0 | [8] 0 | [9] 0 | [10] 0

Remaining list, next part:

O=C(O)CCc1ccc(NCc2cccc(Oc3ccccc3)c2)cc1 (10 µM)
inactive: [1] 0 | [2] 0 | [3] 0 | [4] 0 | [5] 0 | [6] 0 | [7] 0 | [8] 0 | [9] 0 | [10] 0

CCOC(=O)c1c2c3c(cccc3[nH]c1=O)C(=O)c1ccccc1-2 (10 µM)
inactive: [1] 0 | [2] 0 | [3] 0 | [4] 0 | [5] 0 | [6] 0 | [7] 0 | [8] 0 | [9] 0 | [10] 0

CC(=O)Nc1nc2ccc(-c3cnc(C)c(NC(=O)OC4CCCCC4)c3)cc2s1 (10 µM)
inactive: [1] 0 | [2] 0 | [3] 0 | [4] 0 | [5] 0 | [6] 0 | [7] 0 | [8] 0 | [9] 0 | [10] 0

CN1CCN(CCCNc2ncc(Cl)c(-c3cc4c(C(=O)NC5CC5)cccc4s3)n2)CC1 (10 µM)
inactive: [1] 0 | [2] 0 | [3] 0 | [4] 0 | [5] 0 | [6] 0 | [7] 0 | [8] 0 | [9] 0 | [10] 0

C[C@H]1[C@H](OC(=O)CCC(=O)O)O[C@@H]2O[C@@]3(C)CC[C@H]4[C@H](C)CC[C@@H]1[C@@]24OO3 [Artesunate] (2.5 µM)
inactive: [1] 0 | [2] 0 | [3] 0 | [4] 0 | [5] 0 | [6] 0 | [7] 0 | [8] 0 | [9] 0 | [10] 0

O[C@H]1CC[C@H](Nc2ncc3nc(Nc4c(F)cc(F)cc4F)n([C@H]4CCOC4)c3n2)CC1 [Tanzisertib] (10 µM)
inactive: [1] 0 | [2] 0 | [3] 0 | [4] 0 | [5] 0 | [6] 0 | [7] 0 | [8] 0 | [9] 0 | [10] 0

CN(CC(=O)N(Cc1ccc(C2CCCCC2)cc1)c1ccc(C(=O)O)c(O)c1)S(=O)(=O)c1c(F)c(F)c(F)c(F)c1F (2.5 µM)
inactive: [1] 0 | [2] 0 | [3] 0 | [4] 0 | [5] 0 | [6] 0 | [7] 0 | [8] 0 | [9] 0 | [10] 0

CCc1ccc(C(=O)COc2ccc(CC3SC(=O)NC3=O)cc2)nc1 (stereo not given) (10 µM)
inactive: [1] 0 | [2] 0 | [3] 0 | [4] 0 | [5] 0 | [6] 0 | [7] 0 | [8] 0 | [9] 0 | [10] 0

O=C1NC(=O)C(c2cn(-c3ccccc3)nc2-c2ccc(F)cc2)N1 (stereo not given) (10 µM)
inactive: [1] 0 | [2] 0 | [3] 0 | [4] 0 | [5] 0 | [6] 0 | [7] 0 | [8] 0 | [9] 0 | [10] 0

Cn1ncc(Cl)c1-c1cc(C(=O)N[C@H](CN)Cc2ccc(F)c(F)c2)sc1Cl (10 µM)
inactive: [1] 0 | [2] 0 | [3] 0 | [4] 0 | [5] 0 | [6] 0 | [7] 0 | [8] 0 | [9] 0 | [10] 0

CC(CCc1ccccn1)(CCc1ccccn1)C(=O)c1ccccc1 (10 µM)
inactive: [1] 0 | [2] 0 | [3] 0 | [4] 0 | [5] 0 | [6] 0 | [7] 0 | [8] 0 | [9] 0 | [10] 0

O=C(CCCCCn1cc(Nc2ncc(Cl)c(Nc3ccc(Cl)cc3)n2)cn1)NO (2.5 µM)
inactive: [1] 0 | [2] 0 | [3] 0 | [4] 0 | [5] 0 | [6] 0 | [7] 0 | [8] 0 | [9] 0 | [10] 0

Cc1cc2ncc(-c3ccccc3)nc2cc1C (10 µM)
inactive: [1] 0 | [2] 0 | [3] 0 | [4] 0 | [5] 0 | [6] 0 | [7] 0 | [8] 0 | [9] 0 | [10] 0
